Measured values reported in ChEMBL document CHEMBL1782008, “Paraminabeolides A-F, cytotoxic and anti-inflammatory marine withanolides from the soft coral Paraminabea acronocephala” (J Nat Prod, 2011).

Assays:
MDA-MB-231 = assay: Cytotoxicity against human MDA-MB-231 cells by MTT assay; type: functional, cell-based
A549 = assay: Cytotoxicity against human A549 cells by MTT assay; type: functional, cell-based

COc1cccc2c1C(=O)c1c(O)c3c(c(O)c1C2=O)C[C@@](O)(C(=O)CO)C[C@@H]3O[C@H]1C[C@H](N)[C@H](O)[C@H](C)O1 [DOXORUBICIN]
IC50 (MDA-MB-231): 2200 nM
IC50 (A549): 2200 nM
